# Source: patent US20130023485A1, “PARENTERAL FORMULATIONS OF PEPTIDES FOR THE TREATMENT OF SYSTEMATIC LUPUS ERYTHEMATOSUS” (Teva Pharmaceutical Industries, Ltd., priority 2003, published 2013)
# Test system: SLE subjects
# Experiment: Phase Ia clinical study, single s.c. dose, tolerability and safety
# Type: in vivo, human
# Details: change of ≧3, ≦12 points; except one subject in the 0.5 mg group
# Method: Thirty-six (36) subjects participated in the study. To be eligible for inclusion in the study, SLE patients must have fulfilled at least four criteria used for the diagnosis of lupus by the American College of Rheumatology. Patients must also have had stable, mild/moderate disease and score less than or equal to 10 on the SLE Disease Activity Index, SLEDAI. […] A standard battery of safety tests, including blood and urine collection for laboratory tests, was performed at screening, during the day of dosing, at 24 hours post-dose and at 2, 4 and 8 weeks following dosing. Prior to dosing, and on scheduled follow-up visits, blood samples were withdrawn for SLE-related immunological tests, anti-Compound 1 antibodies and PBL proliferation assay. […] The following safety parameters were assessed at Screening, during the hospitalization and at follow-up visits including Termination visit: vital signs (systolic blood pressure, diastolic blood pressure, pulse, oxygen saturation, temperature and weight), 12-lead ECG, change in physical examination and clinical routine laboratory safety tests. Adverse events were recorded at the Dosing Day and at each visit thereafter. […] Disease activity assessment using the SLE disease activity index score, year 2000 updated (SLEDAI 2K) was assessed at Screening, during the hospitalization and at follow-up visits including Termination visit.
substance,measurement,value
H-GYYWSWIRQPPGKGEEWIG-OH [Compound 1],SLEDAI score,No clinically significant effects
